Source: publication PMC9894554
These are yes or no findings as the source states them, for the method shown. Binding seen in cells or lysates may run through a third protein. Some entries that bind do so weakly or less than the wild type.

By UniProt entry, the sequences of proteins in these tests, tags left out. Residues count along the entry.
UniProt Q7TFA0, residues 16-39: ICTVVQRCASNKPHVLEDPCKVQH

Molecular target: T1, interleukin 17 receptor A (human (endogenous in THP-1)) (UniProt Q96F46)
T1 sequence: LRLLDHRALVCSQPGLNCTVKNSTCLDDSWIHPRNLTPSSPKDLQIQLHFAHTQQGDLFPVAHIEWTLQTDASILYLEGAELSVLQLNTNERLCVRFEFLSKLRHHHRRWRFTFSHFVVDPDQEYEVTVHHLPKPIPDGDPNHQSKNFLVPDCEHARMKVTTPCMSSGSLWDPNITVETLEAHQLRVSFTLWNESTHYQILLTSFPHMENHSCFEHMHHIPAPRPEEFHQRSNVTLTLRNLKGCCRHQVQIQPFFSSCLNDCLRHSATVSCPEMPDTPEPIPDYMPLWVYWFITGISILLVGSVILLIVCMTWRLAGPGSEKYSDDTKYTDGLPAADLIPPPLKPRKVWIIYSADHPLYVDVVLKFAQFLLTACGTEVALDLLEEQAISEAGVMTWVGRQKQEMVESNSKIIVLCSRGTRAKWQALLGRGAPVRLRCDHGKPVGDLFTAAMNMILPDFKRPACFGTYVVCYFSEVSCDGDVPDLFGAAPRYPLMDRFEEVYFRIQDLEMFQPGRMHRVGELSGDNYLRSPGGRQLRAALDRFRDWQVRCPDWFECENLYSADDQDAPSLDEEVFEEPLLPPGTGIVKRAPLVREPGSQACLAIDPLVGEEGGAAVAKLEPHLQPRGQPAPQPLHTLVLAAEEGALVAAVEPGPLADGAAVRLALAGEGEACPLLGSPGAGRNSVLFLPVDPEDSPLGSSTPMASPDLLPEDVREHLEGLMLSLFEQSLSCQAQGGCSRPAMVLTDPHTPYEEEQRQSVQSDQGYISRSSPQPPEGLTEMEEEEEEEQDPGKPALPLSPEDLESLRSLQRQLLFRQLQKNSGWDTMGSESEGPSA
Assay: co-IP; only the binder purified

In the case of “Flag-tagged SARS-CoV ORF8a secreted by transfected Calu-3 cells (from UniProt Q7TFA0 16-39)”, the binding is reported as “binds”.
